Assay results as given in the supplement of paper PMC10849652.
This is one part of the list.

Amino acid sequences for entries named in this document (tags omitted). A change or cut given only in a name is not applied to a line headed by its entry.
UniProt Q13530: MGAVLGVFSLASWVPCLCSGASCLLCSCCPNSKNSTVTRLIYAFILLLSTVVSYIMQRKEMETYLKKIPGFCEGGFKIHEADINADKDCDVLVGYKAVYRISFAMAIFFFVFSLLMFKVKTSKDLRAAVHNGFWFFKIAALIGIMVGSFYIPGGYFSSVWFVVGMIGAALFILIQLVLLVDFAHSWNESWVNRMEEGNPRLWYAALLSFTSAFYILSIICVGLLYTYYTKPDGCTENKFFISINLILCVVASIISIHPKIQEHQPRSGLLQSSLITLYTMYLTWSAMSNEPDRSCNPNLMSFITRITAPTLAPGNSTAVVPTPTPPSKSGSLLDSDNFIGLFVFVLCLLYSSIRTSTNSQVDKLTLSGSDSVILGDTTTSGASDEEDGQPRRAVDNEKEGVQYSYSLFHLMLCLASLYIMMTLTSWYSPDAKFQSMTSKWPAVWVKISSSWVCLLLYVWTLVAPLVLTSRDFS
UniProt Q8TD22: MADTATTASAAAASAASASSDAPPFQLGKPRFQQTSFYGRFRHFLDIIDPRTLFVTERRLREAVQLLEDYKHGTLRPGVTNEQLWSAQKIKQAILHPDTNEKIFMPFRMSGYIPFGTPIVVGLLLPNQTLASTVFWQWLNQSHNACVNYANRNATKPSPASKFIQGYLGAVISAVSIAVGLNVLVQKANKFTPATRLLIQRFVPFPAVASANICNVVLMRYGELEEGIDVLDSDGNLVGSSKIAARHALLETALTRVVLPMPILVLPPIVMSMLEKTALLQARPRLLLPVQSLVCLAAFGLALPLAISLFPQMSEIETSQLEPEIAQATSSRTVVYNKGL
UniProt Q99961: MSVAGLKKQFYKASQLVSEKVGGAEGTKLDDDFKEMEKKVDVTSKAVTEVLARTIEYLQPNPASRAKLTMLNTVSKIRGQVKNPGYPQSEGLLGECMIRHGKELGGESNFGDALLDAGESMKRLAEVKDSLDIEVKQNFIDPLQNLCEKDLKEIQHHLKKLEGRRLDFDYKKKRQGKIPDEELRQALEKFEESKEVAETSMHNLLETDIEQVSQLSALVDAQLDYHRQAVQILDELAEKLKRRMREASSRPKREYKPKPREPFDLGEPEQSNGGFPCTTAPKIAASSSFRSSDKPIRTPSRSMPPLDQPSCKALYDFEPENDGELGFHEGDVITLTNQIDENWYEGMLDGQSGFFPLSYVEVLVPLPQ
UniProt Q99719: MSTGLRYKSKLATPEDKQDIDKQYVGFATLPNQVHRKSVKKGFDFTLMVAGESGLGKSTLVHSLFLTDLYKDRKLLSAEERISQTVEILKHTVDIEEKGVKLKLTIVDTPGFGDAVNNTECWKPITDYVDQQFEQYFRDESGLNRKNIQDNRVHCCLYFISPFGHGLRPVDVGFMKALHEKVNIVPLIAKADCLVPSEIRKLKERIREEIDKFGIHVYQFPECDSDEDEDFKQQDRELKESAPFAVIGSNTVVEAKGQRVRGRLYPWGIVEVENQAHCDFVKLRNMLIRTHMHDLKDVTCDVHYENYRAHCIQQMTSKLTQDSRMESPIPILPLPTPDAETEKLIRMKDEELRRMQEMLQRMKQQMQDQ
UniProt Q99720, whole entry, looked up: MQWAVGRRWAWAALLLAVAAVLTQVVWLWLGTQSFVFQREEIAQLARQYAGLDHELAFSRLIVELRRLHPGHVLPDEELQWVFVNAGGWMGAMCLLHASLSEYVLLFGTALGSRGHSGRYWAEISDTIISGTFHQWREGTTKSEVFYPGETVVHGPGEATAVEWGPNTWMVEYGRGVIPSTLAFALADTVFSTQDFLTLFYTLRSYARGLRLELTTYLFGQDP
UniProt O60613, whole entry, looked up: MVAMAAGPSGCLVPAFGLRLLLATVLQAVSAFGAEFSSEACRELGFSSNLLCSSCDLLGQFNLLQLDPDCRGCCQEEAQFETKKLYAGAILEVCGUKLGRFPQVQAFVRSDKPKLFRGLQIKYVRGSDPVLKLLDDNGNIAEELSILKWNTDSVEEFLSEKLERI
UniProt Q96NB2: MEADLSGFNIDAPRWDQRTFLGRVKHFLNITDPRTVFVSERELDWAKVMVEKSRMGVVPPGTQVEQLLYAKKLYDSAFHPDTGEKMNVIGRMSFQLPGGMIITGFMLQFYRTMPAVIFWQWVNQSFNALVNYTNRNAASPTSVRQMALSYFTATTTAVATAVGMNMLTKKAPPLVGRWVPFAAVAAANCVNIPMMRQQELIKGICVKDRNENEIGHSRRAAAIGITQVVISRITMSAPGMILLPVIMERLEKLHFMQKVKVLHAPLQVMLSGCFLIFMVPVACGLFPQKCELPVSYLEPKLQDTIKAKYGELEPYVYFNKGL
UniProt P58004: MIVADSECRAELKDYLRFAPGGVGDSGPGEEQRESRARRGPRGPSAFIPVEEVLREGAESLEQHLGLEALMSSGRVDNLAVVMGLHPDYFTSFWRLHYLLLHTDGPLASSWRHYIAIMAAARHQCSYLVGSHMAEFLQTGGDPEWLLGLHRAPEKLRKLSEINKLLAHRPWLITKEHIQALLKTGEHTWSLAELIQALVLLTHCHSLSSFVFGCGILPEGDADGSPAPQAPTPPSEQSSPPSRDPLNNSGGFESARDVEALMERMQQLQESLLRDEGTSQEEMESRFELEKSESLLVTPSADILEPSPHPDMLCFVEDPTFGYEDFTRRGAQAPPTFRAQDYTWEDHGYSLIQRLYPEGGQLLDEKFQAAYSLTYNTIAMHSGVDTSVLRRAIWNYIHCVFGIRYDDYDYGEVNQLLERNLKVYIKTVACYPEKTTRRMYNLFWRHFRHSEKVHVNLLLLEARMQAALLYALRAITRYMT
UniProt Q8NBJ9: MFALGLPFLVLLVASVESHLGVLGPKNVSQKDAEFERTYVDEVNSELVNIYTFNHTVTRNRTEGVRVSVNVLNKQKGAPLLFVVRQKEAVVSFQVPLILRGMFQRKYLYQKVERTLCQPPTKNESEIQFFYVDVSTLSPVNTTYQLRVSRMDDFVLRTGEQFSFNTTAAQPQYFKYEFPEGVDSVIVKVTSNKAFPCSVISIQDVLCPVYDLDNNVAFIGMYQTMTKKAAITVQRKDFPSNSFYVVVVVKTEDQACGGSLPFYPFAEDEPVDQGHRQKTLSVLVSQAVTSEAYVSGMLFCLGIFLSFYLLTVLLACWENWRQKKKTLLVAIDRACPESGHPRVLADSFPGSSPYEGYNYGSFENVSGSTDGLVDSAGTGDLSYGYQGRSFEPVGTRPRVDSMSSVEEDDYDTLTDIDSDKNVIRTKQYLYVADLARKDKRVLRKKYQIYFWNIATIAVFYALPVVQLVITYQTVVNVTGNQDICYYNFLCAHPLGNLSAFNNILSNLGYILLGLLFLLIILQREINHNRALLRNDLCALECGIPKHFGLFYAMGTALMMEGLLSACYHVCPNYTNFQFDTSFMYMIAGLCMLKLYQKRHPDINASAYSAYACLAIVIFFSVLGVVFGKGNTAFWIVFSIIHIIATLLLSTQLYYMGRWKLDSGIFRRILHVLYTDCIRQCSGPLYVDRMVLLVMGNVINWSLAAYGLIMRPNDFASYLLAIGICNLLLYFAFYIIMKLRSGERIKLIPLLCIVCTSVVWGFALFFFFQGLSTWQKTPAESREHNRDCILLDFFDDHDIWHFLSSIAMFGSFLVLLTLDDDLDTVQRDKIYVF
UniProt Q9UQ13: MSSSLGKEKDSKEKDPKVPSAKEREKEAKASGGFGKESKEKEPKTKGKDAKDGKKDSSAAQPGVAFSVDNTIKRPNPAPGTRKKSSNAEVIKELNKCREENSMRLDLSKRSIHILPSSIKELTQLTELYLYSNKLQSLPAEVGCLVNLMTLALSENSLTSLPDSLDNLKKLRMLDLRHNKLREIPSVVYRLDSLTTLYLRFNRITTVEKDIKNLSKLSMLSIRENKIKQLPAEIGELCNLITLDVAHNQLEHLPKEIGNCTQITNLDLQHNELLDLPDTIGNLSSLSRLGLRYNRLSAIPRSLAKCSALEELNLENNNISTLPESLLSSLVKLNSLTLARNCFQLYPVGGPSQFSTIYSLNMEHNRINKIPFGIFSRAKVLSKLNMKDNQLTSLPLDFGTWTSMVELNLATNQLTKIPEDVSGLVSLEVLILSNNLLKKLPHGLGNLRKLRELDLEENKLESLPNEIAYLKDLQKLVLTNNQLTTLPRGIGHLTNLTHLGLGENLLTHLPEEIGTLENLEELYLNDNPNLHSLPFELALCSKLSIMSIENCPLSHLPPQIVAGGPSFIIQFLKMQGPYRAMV
UniProt Q9NRX5: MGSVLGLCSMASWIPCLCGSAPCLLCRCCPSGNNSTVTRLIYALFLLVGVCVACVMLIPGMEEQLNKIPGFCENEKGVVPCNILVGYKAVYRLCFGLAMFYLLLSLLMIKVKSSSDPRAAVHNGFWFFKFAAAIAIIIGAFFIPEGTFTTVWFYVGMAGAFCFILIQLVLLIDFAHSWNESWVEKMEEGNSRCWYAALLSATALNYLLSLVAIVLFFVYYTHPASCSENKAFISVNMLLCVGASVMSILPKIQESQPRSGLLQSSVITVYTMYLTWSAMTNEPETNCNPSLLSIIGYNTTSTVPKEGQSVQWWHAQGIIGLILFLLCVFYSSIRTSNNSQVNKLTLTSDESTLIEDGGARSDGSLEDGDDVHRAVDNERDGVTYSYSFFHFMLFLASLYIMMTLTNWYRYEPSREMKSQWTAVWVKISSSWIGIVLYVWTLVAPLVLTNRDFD
UniProt O43236: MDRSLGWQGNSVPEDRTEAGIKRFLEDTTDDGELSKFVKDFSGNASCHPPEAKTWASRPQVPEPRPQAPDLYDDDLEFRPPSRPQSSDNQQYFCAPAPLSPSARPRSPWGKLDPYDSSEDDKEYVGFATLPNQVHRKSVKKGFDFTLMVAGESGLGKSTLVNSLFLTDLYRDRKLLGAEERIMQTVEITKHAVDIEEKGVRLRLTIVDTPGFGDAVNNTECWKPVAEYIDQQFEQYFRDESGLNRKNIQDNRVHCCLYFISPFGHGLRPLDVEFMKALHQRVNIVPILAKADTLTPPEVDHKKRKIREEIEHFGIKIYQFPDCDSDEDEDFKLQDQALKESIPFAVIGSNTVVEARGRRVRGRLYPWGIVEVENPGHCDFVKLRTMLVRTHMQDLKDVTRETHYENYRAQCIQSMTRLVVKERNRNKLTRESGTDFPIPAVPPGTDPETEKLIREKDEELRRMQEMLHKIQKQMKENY
UniProt Q8NEM2: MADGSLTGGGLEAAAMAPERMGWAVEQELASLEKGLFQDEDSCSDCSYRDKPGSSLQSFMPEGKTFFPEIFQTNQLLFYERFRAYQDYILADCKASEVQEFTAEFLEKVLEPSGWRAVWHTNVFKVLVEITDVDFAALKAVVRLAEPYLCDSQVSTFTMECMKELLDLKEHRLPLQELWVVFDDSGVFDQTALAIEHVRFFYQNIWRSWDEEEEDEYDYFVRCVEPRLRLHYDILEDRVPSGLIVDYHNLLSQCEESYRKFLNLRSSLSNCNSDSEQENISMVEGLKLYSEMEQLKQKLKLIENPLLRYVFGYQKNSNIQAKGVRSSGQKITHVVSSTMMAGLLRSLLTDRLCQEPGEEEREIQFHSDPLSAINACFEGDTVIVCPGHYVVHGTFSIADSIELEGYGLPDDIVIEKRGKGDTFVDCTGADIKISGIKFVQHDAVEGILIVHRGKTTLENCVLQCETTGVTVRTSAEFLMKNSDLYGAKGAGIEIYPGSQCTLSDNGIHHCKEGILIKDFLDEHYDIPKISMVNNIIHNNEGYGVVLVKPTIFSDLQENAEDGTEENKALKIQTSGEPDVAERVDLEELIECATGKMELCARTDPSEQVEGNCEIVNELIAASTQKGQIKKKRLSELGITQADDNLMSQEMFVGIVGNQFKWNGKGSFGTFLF
UniProt Q8IZQ5, whole entry, looked up: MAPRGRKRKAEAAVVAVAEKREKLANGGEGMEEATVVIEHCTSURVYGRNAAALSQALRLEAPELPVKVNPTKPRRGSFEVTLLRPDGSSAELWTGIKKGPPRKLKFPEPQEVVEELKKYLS
UniProt P63208, whole entry, looked up: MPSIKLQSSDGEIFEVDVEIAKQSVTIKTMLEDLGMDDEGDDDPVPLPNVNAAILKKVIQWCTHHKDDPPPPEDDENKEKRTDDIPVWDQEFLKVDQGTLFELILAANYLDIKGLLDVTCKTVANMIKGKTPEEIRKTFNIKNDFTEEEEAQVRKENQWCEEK
UniProt Q9NR46: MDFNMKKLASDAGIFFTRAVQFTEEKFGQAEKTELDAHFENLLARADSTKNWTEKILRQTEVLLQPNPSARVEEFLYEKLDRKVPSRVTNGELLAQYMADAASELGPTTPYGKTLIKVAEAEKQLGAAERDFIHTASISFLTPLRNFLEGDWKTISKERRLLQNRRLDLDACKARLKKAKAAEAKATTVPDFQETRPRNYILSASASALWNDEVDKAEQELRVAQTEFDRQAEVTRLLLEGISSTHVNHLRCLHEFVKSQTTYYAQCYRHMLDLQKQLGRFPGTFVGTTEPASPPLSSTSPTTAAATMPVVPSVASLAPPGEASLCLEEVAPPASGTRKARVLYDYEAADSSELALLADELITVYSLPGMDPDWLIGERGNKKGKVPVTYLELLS

Compound: C1CCN(C1)C(=O)NC2=CC=CC(=C2)NC3=NC=C(C(=N3)NCCC4=CN=CN4)Br
Test: log2 fold change, soluble protein after heating vs DMSO (PISA); higher = thermal stabilisation; K562 cells, 10 uM, 30 min; active = over 0.2 and 3.5 SD of the protein, either way, in both replicates (recomputed)
Procedure, shortened: (§1)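 K562 cells at 2×10^6 cells/mL were treated for 30 min with 10 μM compound, and aliquots were heated for 3 min over 48°C-58°C before pooling. Extraction used PBS with 0.5% NP-40 at 4°C, and soluble protein was the supernatant after 21,000xg for 90 min, measured by TMTpro 16plex LC-MS/MS with channel sums equalised. Thermal stability values, relative to control samples and from duplicates, are log2 fold changes.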

log2 fold change, inactive:
SHC1 isoform 6 (UniProt P29353) -0.022
SERINC3 (UniProt Q13530) 0.007
SEL1L3 (UniProt Q68CR1) 0.03
SFXN5 (UniProt Q8TD22) -0.066
SH3GL1 (UniProt Q99961) -0.047
SEPTIN5 (UniProt Q99719) -0.012
SIRT2 (UniProt Q8IXJ6) 0.025
SIGMAR1 (UniProt Q99720) -0.002
SELENOF (UniProt O60613) -0.039

Compound: C1CN(CCC1(CC2=CC=C(C=C2)Cl)N)C3=NC=NC4=C3C=CN4
Test: as above
Procedure, shortened: as §1

log2 fold change, inactive:
SFXN2 (UniProt Q96NB2) 0.016
SESN2 (UniProt P58004) -0.109
SGPL1 (UniProt O95470) -0.145
SGTA (UniProt O43765) -0.009
SIDT2 isoform 2 (UniProt Q8NBJ9) 0.053
SHOC2 (UniProt Q9UQ13) -0.038
SEPSECS (UniProt Q9HD40) 0.031
SERINC1 (UniProt Q9NRX5) -0.031
SERPINF1 (UniProt P36955) 0.035
SIN3A (UniProt Q96ST3) -0.001
SEH1L isoform 1 (UniProt Q96EE3) 0.035
SETD3 (UniProt Q86TU7) 0.044
SEPTIN9 (UniProt Q9UHD8) 0.037
SEPTIN4 isoform 4 (UniProt O43236) 0.125
SHCBP1 (UniProt Q8NEM2) -0.128
SENP6 (UniProt Q9GZR1) 0.049
SELENOH (UniProt Q8IZQ5) 0.032
SETMAR (UniProt Q53H47) -0.248
SKP1 (UniProt P63208) 0.03
SH3GLB2 (UniProt Q9NR46) -0.013
SEPHS2 (UniProt Q99611) 0.029
SERPINA7 (UniProt P05543) 0.272
SERPINB6, A0A087X1N8 0.094
SHC1 isoform 6 (UniProt P29353) 0.003
SERINC3 (UniProt Q13530) 0.06
SEL1L3 (UniProt Q68CR1) 0.006
SFXN5 (UniProt Q8TD22) -0.045
SH3GL1 (UniProt Q99961) -0.045
SEPTIN5 (UniProt Q99719) 0.039
SIRT2 (UniProt Q8IXJ6) 0.016
SIGMAR1 (UniProt Q99720) 0.089
SELENOF (UniProt O60613) 0.026
